# No constants are given. Whether binding was seen depends on the method and setting. Binding seen in cells or lysates may run through a third protein. Some entries that bind do so weakly or less than the wild type. Tags and fused reporters may be left off the sequences shown.
# Protein sequences, listed by entry. Tags and fused reporters are not part of them.
# UniProt P04147: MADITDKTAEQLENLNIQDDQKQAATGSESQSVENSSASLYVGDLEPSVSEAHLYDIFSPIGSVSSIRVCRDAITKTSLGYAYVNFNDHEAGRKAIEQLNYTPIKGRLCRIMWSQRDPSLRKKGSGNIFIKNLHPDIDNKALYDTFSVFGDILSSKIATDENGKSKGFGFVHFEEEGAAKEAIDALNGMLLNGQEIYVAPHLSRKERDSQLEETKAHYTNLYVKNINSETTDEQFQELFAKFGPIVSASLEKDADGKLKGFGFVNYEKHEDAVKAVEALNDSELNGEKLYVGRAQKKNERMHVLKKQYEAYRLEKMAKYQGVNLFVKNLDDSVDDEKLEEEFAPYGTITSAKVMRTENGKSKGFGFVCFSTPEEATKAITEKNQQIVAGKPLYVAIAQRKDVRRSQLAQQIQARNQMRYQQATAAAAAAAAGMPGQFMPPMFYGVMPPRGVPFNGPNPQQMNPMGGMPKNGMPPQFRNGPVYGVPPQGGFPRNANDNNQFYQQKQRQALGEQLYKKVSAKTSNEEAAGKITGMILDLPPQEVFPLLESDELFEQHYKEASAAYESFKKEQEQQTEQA
# B1: Myc-tagged Mdy2 (protein, UniProt Q12285 1-212)
# chain: MSTSASGPEHEFVSKFLTLATLTEPKLPKSYTKPLKDVTNLGVPLPTLKYKYKQNRAKKLKLHQDQQGQDNAAVHLTLKKIQAPKFSIEHDFSPSDTILQIKQHLISEEKASHISEIKLLLKGKVLHDNLFLSDLKVTPANSTITVMIKPNPTISKEPEAEKSTNSPAPAPPQELTVPWDDIEALLKNNFENDQAAVRQVMERLQKGWSLAK
# B2: Myc-tagged Mdy2-ΔNLS (protein, UniProt Q12285)
# chain: MSTSASGPEHEFVSKFLTLATLTEPKLPKSYTKPLKDVTNLGVPLPTLLHQDQQGQDNAAVHLTLKKIQAPKFSIEHDFSPSDTILQIKQHLISEEKASHISEIKLLLKGKVLHDNLFLSDLKVTPANSTITVMIKPNPTISKEPEAEKSTNSPAPAPPQELTVPWDDIEALLKNNFENDQAAVRQVMERLQKGWSLAK
# B3: Myc-tagged Mdy2-ΔNES (protein, UniProt Q12285)
# chain: MSTSASGPEHEFVSKFLTLATLTEPKLPKSYTKPLKDVTNLGVPLPTLKYKYKQNRAKKLKLHQDQQGQDNAAVHLTLKKIQAPKFSIEHDFSPSDTILQIKQHLISEEKASHISEIGKVLHDNLFLSDLKVTPANSTITVMIKPNPTISKEPEAEKSTNSPAPAPPQELTVPWDDIEALLKNNFENDQAAVRQVMERLQKGWSLAK
# Tests used:
# [1] = molecular target: GST-tagged Pab1 (S. cerevisiae) (UniProt P04147); assay: pull-down; GST fusion and Myc-tagged Mdy2 variant coexpressed in yeast (16 h in SRG medium); whole cell extract with Glutathione Sepharose 4B, 2 h at 4°C, four washes in E-buffer (20 mM HEPES pH 7.5, 150 mM NaCl, 5 mM EDTA, 0.1% Triton-X-100, 10% glycerol); Western blot with anti-Myc
# [2] = molecular target: T1, GST-tagged Sgt2 (S. cerevisiae) (UniProt Q12118); assay: as above
# T1 sequence: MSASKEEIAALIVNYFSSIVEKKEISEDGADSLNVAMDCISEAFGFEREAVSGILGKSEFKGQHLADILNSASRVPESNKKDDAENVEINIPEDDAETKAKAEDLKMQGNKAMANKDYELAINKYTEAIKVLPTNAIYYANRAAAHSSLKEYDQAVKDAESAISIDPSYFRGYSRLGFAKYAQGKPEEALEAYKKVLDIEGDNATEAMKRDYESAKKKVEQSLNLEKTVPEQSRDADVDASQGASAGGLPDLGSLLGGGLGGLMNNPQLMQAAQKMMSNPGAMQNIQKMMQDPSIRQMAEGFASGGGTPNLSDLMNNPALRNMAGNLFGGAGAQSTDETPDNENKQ
Binder,binding [1],binding [2]
B1,binds,binds
B2,–,binds
B3,–,no binding
